Results from paper PMC5028767.
No constants are given. Whether binding was seen depends on the method and setting. Some binding calls cover weakened binding; strength is not graded here. Tags and fused reporters may be left off the sequences shown.

Molecular target: C. albicans Cdc7 (CaCdc7) fused with the Gal4 DNA binding domain (Candida albicans)
Assay: two-hybrid; Gal4 system; BD-CaCdc7 (pGBKT7, Y187) and AD-CaDbf4 (pACT2, AH109) in mated diploid S. cerevisiae; growth on SD lacking leucine, tryptophan and histidine with 2.5 mM 3-AT, and up to 20 mM 3-AT; HIS3 reporter

- binding: binds
B1: C. albicans Dbf4 (CaDbf4) fused with the Gal4 activation domain (protein, UniProt Q5A5B4 1-506)
chain: MSKVEEHESVNNLKRKFPSLAKPRQPLKETNSNIPSPHKRAKIESPSKQQSTQQPQQQPQPQPQPQPQQEKATHKPKKSSHQSKNNDKLAGDEMHEWQQSWRRIMKSSIVYFEGDQQSLEYRKAHKLLRLVGCKVTPFYDNNVTIIISKRPYDSKTEYSPHDIFSNVSKASIKVWNYDKVFRFLKHLGINIQTGVDELAVNTHTILPPSLTNNNEKPDLYNLLKEEKIYGSTDRDPNAKRDDLHYLGKNYLYVYDLTQTVRPIAIREWSDHYPVMQLSLDGKCPFIEDPTDQNSERKRLKRLRKFEANQAHREALRLATYKMINGISMSVHGFTATSTSTDKVDEEEDSTVKEPSEDPRFRQPLNRNSSCMQSKAFEAMASGYNGASNAVQPSMDSNLNSAAAMAGGNGLGPALSQVPSKQLNNLKRRILMKKKTTNTTEKKDKEHASGYCENCRVKYTNFDEHIMTNRHRNFACDDRNFQDIDELIASLRERKSLGNVISNGDYV
